Results deposited as PubChem BioAssay AID743121 (NCATS, 2013).
This is one part, drawn at random, of about 26,000 reagents tested. Over the whole deposit, 167 (0.63%) got an active call. 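Calls are per gene from RSA p-values that are not deposited; an individual active-marked siRNA can sensitise only weakly.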 Entries without a mark were called inactive. Reagents against one gene are numbered here. No sequences are given here.

- Aim: 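Genes whose silencing strengthens cell killing by camptothecin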 (primary screen)
- Cells: MDA-MB-231 cells, a human breast cancer line
- Reagents: single siRNA against human genes, 20 nM siRNA (0.8 pmol per well)
- Timing: 120 h (drug added 48 h after transfection, read 72 h later)
- Challenge: camptothecin 20 nM (about EC30) for 72 h; vehicle 0.1% DMSO in parallel plates
- Measurement: 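Cell viability by ATP luminescence (CellTiter-Glo) as % of non-targeting siRNA wells, and the log2 ratio of viability without drug over viability with camptothecin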
- Scale: log2 vehicle/camptothecin viability: higher = stronger sensitisation to camptothecin; viability with camptothecin and viability without drug: higher = more viable cells
- Active means: 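Each gene scored by redundant siRNA activity (RSA) over its individual siRNA ratios; a gene is called active at p < 0.001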

Target gene | siRNA no. | log2 vehicle/camptothecin viability | viability with camptothecin (% of control) | viability without drug (% of control)
MADD (GeneID 8567) | 1 | -0.0666 | 98.3 | 93.8
MADD (GeneID 8567) | 2 | -0.242 | 125 | 105
MADD (GeneID 8567) | 3 | 0.108 | 107 | 115
MADD (GeneID 8567) | 4 | -0.279 | 110 | 90.4
SERPINB1 (GeneID 1992) | 1 | -0.212 | 69.3 | 59.9
SERPINB1 (GeneID 1992) | 2 | -0.578 | 118 | 78.8
SERPINB1 (GeneID 1992) | 3 | -0.103 | 107 | 99.2
ASH1L (GeneID 55870) | 1 | -0.0475 | 120 | 116
ASH1L (GeneID 55870) | 2 | 0.128 | 43.2 | 47.3
ASH1L (GeneID 55870) | 3 | -0.183 | 74.7 | 65.7
ASH1L (GeneID 55870) | 4 | 0.398 | 38.3 | 50.5
HSD17B2 (GeneID 3294) | 1 | -0.466 | 83.2 | 60.2
HSD17B2 (GeneID 3294) | 2 | -0.468 | 89.5 | 64.7
HSD17B2 (GeneID 3294) | 3 | 0.199 | 94.1 | 108
HSD17B2 (GeneID 3294) | 4 | -0.423 | 85.2 | 63.5

Targets listed so far whose gene name starts with S or s (3):
Target gene | siRNA no. | log2 vehicle/camptothecin viability | viability with camptothecin (% of control) | viability without drug (% of control)
SERPINB1 (GeneID 1992) | 1 | -0.212 | 69.3 | 59.9
SERPINB1 (GeneID 1992) | 2 | -0.578 | 118 | 78.8
SERPINB1 (GeneID 1992) | 3 | -0.103 | 107 | 99.2

Continued.
Target gene | siRNA no. | log2 vehicle/camptothecin viability | viability with camptothecin (% of control) | viability without drug (% of control)
EPB42 (GeneID 2038) | 1 | -0.237 | 64.7 | 54.9
EPB42 (GeneID 2038) | 2 | -0.218 | 99.6 | 85.6
EPB42 (GeneID 2038) | 3 | -0.465 | 73.4 | 53.2
EPB42 (GeneID 2038) | 4 | -0.271 | 113 | 93.9
PAQR9 (GeneID 344838) | 1 | -0.311 | 40.8 | 32.9
PAQR9 (GeneID 344838) | 2 | -0.398 | 62.4 | 47.4
PAQR9 (GeneID 344838) | 3 | -0.27 | 56.7 | 47
PAQR9 (GeneID 344838) | 4 | -0.376 | 70.9 | 54.6
PXDN (GeneID 7837) | 1 | -0.328 | 85.7 | 68.3
PXDN (GeneID 7837) | 2 | -0.238 | 90.2 | 76.5
PXDN (GeneID 7837) | 3 | -0.266 | 97.3 | 81
PXDN (GeneID 7837) | 4 | -0.673 | 63.7 | 40
EPB41L1 (GeneID 2036) | 1 | -0.104 | 115 | 107
EPB41L1 (GeneID 2036) | 2 | 0.0537 | 32.7 | 34
EPB41L1 (GeneID 2036) | 3 | 0.103 | 44 | 47.2
EPB41L1 (GeneID 2036) | 4 | -0.134 | 111 | 101
